Measurements taken from the supplement of paper PMC7052299.
Some of the results follow. Most values come without repeats; read them as rough.

Test system: Danio rerio embryo (th-expressing DA/NA neurons)
Assay: percentage of embryos with altered th expression (decrease or increase vs DMSO control) in brain region; higher = more embryos with altered dopaminergic/noradrenergic marker expression; extreme values may be limits of the assay
Conditions: treatment window: 24-72 hpf, fixed 96 hpf
Method: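 Primary screen in zebrafish embryos (AB/TL). Embryos were treated with each compound at 1, 3, 10 or 30 µM in E3/PTU with 1% DMSO from 24 to 72 hpf, washed out, and fixed at 96 hpf. th (tyrosine hydroxylase) expression was scored by whole-mount in situ hybridization per DA/NA brain region (strong decrease, decrease, normal, increase, strong increase), with 7-16 embryos per treatment and no independent replicates. The value is the percentage of scored embryos whose th expression was altered (decrease or increase) relative to DMSO controls.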

## N[C@@H]1C[C@H]1c1ccccc1.N[C@H]1C[C@@H]1c1ccccc1 [Tranylcypromine]
1 µM, brain region: telencephalon
  percentage of embryos with altered th expression: 0%
3 µM, brain region: DC1
  percentage of embryos with altered th expression: 0%
3 µM, brain region: DC2
  percentage of embryos with altered th expression: 0%
3 µM, brain region: DC3
  percentage of embryos with altered th expression: 0%
3 µM, brain region: DC 4,5,6
  percentage of embryos with altered th expression: 0%
3 µM, brain region: LC
  percentage of embryos with altered th expression: 0%
3 µM, brain region: MO
  percentage of embryos with altered th expression: 0%
3 µM, brain region: Pretectum
  percentage of embryos with altered th expression: 0%
3 µM, brain region: telencephalon
  percentage of embryos with altered th expression: 0%
10 µM, brain region: DC1
  percentage of embryos with altered th expression: 0%
10 µM, brain region: DC2
  percentage of embryos with altered th expression: 0%
10 µM, brain region: DC3
  percentage of embryos with altered th expression: 0%
10 µM, brain region: DC 4,5,6
  percentage of embryos with altered th expression: 16.7%
10 µM, brain region: LC
  percentage of embryos with altered th expression: 0%
10 µM, brain region: MO
  percentage of embryos with altered th expression: 100%
10 µM, brain region: Pretectum
  percentage of embryos with altered th expression: 0%
10 µM, brain region: telencephalon
  percentage of embryos with altered th expression: 0%
30 µM, brain region: DC1
  percentage of embryos with altered th expression: 0%
30 µM, brain region: DC2
  percentage of embryos with altered th expression: 0%
30 µM, brain region: DC3
  percentage of embryos with altered th expression: 0%
30 µM, brain region: DC 4,5,6
  percentage of embryos with altered th expression: 16.7%
30 µM, brain region: LC
  percentage of embryos with altered th expression: 0%
30 µM, brain region: MO
  percentage of embryos with altered th expression: 0%
30 µM, brain region: Pretectum
  percentage of embryos with altered th expression: 0%
30 µM, brain region: telencephalon
  percentage of embryos with altered th expression: 16.7%
